Among all 360,000 compounds or so, about 7,500 (2.1%) were called active. This list was built around the results that the source calls inconclusive (neither active nor inactive); the mix of calls is not that of the screen. The call rests on the fitted dose curve; in most records, active means well fitted inhibition curve with a large enough effect; inconclusive means small, poorly fitted or top-dose-only effect, or effect the other way; inactive means flat fitted curve, though single readings scatter. Potencies beside an inconclusive call are fits to weak or partial responses and may not hold up.
Test: Nrf2 qHTS screen for inhibitors; further: nearly all actives have a fitted effect of over 60% in size
Conditions: A549 ARE-Fluc reporter, luciferase luminescence, 18-24 h; series mostly up to 46 µM
Summary of the method: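 Quantitative HTS in A549 cells stably bearing an antioxidant response element-firefly luciferase construct. Inhibition of Nrf2-driven transcription was scored by luminescence after 18-24 h of compound exposure at 37 °C.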
Potency means the concentration at half of the fitted maximal effect.

Structure (SMILES)	Potency
COc1ccc(C2=CC(=O)C[C@H](COCc3ccccc3)N(C(=O)OC(C)(C)C)O2)cc1	inconclusive: 20.6 µM [falling, partial curve, poor fit]
O=C(/C=C/c1cccs1)Nc1scc(-c2ccccc2)c1C(=O)O	inconclusive: 2.59 µM [activator, full curve]
O=C(Nc1nc2ccccc2s1)c1ccccc1[N+](=O)[O-]	inconclusive: 7.31 µM [activator, partial curve]
Cc1csc(NC(=O)c2c(-c3c(F)cccc3Cl)noc2C)n1	inconclusive: 29.1 µM [falling, single point]
Cc1cccc(NC(=O)C(CC(C)C)NC(=O)C2CCC(C)CC2)n1 (stereo not given)	inconclusive: 3.66 µM [falling, single point]
COc1ccc(NC(=O)CN(C)C(=O)/C=C/c2ccc(OCc3ccccc3)cc2)cc1	inconclusive: 18.4 µM [falling, single point]
Cc1ccc2c(CSc3nc4ccccc4c(=O)n3CCCO)cc(=O)oc2c1C	inconclusive: 32.6 µM [falling, single point]
O=c1c2ccccc2oc2cc(-c3ccc(CN4CCOCC4)cc3)ccc12	inconclusive: 3.26 µM [activator, partial curve, poor fit]
CCN1CCN(C(=O)c2ccc(CS(=O)(=O)Cc3ccccc3F)o2)CC1	inconclusive: 6.51 µM [falling, single point]
CCOc1ccc2[nH]c3c(NCCCOC)ncnc3c2c1	inactive
O=C(COc1ccc2ccc(=O)oc2c1)N1CCc2ccccc21	inconclusive: 7.31 µM [activator, partial curve]
CN(C)c1ccc(-c2nnc(-c3cccs3)o2)cc1	inconclusive: 4.61 µM [activator, full curve]
CCN(c1ccccc1)S(=O)(=O)c1cc(C(=O)Nc2cccc(Cl)c2)ccc1F	inconclusive: 29.1 µM [falling, single point]
O=C(NC(=S)Nc1ccc(S(=O)(=O)N2CCCC2)cc1)c1cccs1	inactive
CC(C)Oc1ccc(Br)cc1C(=O)N/N=C/c1c[nH]c2ccccc12	inconclusive: 23.1 µM [activator, partial curve, poor fit]
CCc1ccc2[nH]c(=O)c(C(c3nnnn3CC3CCCO3)N3CCCc4ccccc43)cc2c1 (stereo not given)	active: 23.1 µM
Cc1nc2cc(NC(=O)NCc3ccc4c(c3)OCO4)ccc2o1	inconclusive: 5.17 µM [falling, full curve, poor fit]
CCOC(=O)Cn1c(=NC(=O)c2cc(-c3cccs3)nc3ccccc23)sc2cc(S(N)(=O)=O)ccc21	inconclusive: 25.9 µM [falling, single point]
Nc1c(C(=O)Nc2ccc3c(c2)OCCO3)nnn1Cc1ccccc1	inconclusive: 1.3 µM [activator, full curve, poor fit]
COc1ccccc1NC(=O)c1sc(NC(=O)c2ccco2)c(C#N)c1C	inconclusive: 2.31 µM [falling, full curve, poor fit]
Clc1ccc(Cn2ncc3c(NCc4ccccc4)ncnc32)cc1	inconclusive: 6.51 µM [falling, partial curve]
OCC1(Cc2ccc(F)cc2F)CCCN(Cc2ccc(Cl)cc2)C1 (stereo not given)	inconclusive: 18.4 µM [falling, partial curve, poor fit]

Structure (SMILES)	Potency
O=C(NC1CCCC1)c1ccc(CSc2nc3cccnc3n2Cc2ccccc2F)cc1	inconclusive: 29.1 µM [falling, single point]
COc1ccc(N(Cc2ccccc2)S(=O)(=O)c2cccc(C(=O)Nc3ccccn3)c2)cc1	inactive
Cc1cc(Cl)c(S(=O)(=O)NC2CCCCC2)cc1OCC(=O)Nc1nncs1	inconclusive: 20.6 µM [falling, single point]
CCC(=O)c1ccc(OCC(=O)Nc2cc(S(=O)(=O)N3CCCCC3)ccc2N2CCN(CC)CC2)cc1	inactive
CCc1c(N)nc(N)nc1Nc1ccccc1C	inconclusive: 29.1 µM [falling, single point]
Cc1cc(SCC(=O)OC/C(O)=C(\C#N)c2nc3ccccc3[nH]2)c(C)cc1Br	inconclusive: 32.6 µM [falling, single point]
N/C(CS(=O)(=O)c1ccccc1)=N\OC(=O)c1ccc(F)cc1	inconclusive: 16.4 µM [activator, single point]
COc1ccc(CNC(=O)C2CCCN(S(=O)(=O)c3ccc(Br)s3)C2)cc1 (stereo not given)	inconclusive: 5.8 µM [falling, partial curve, poor fit]
CC12CCC(=O)C=C1CCC1C2C(O)CC2(C)C(c3csc(N)n3)CCC12 (stereo not given)	active: 23.1 µM
CN(C)c1nc(NCc2ccccc2)nc(SCC(=O)Nc2ccc(Cl)c(Cl)c2)n1	inconclusive: 23.1 µM [falling, single point]
CC(=O)c1cccc(NC(=O)CN2C(=O)COc3ccc(Cl)cc32)c1	inconclusive: 29.1 µM [falling, partial curve, poor fit]
O=C(NN=Cc1ccccc1OC(F)F)c1ccc(NS(=O)(=O)c2cccs2)cc1	inconclusive: 29.1 µM [falling, partial curve, poor fit]
CC(C)C(=O)Nc1ccc(C(=O)N/N=C/c2cc(Br)cc(Br)c2O)cc1	inconclusive: 16.4 µM [falling, single point]
CCCCn1c(CCC(=O)O)ccc1-c1cccs1	inactive
O=C(NCCCc1nc2ccccc2n1Cc1ccccc1Cl)c1ccco1	inactive
O=C(Cc1cccs1)N=Nc1c(O)[nH]c2ccccc12	inactive
CCn1c(=O)c([N+](=O)[O-])c(N2CCSCC2)c2ccccc21	active: 16.4 µM
NC(=O)c1sc2nc3c(c(-c4ccco4)c2c1N)CCC3	active: 5.8 µM
N#C/C(=C(/O)CN1CCCC1)c1nc(-c2ccccc2)cs1	inconclusive: 6.51 µM [activator, partial curve]
CC(CNC(=O)C1CCN(C(=O)N2CCOc3ccc(Cl)cc32)CC1)c1ccccc1 (stereo not given)	inconclusive: 29.1 µM [falling, single point]
Cc1ccc(CN=c2c([N+](=O)[O-])nn(-c3cccc(Cl)c3)n2O)cc1	inconclusive: 20.6 µM [activator, single point]
O=C(N/N=C/c1cccnc1)c1cccc(NC(=O)c2ccc(Cl)cc2)c1	active: 18.4 µM

Retrieved by compound from the entries so far (5):
Structure (SMILES)	Potency
OCC1(Cc2ccc(F)cc2F)CCCN(Cc2ccc(Cl)cc2)C1 (stereo not given)	inconclusive: 18.4 µM [falling, partial curve, poor fit]
O=c1c2ccccc2oc2cc(-c3ccc(CN4CCOCC4)cc3)ccc12	inconclusive: 3.26 µM [activator, partial curve, poor fit]
O=C(NCCCc1nc2ccccc2n1Cc1ccccc1Cl)c1ccco1	inactive
COc1ccc(NC(=O)CN(C)C(=O)/C=C/c2ccc(OCc3ccccc3)cc2)cc1	inconclusive: 18.4 µM [falling, single point]
CC(C)Oc1ccc(Br)cc1C(=O)N/N=C/c1c[nH]c2ccccc12	inconclusive: 23.1 µM [activator, partial curve, poor fit]

Further records.

Structure (SMILES)	Potency
COc1ccc(/C=C2\N=C(SC)N(c3ccccc3OC)C2=O)cc1	inconclusive: 29.1 µM [activator, single point]
COc1ccc(S(=O)(=O)N2CCSC2c2ccccc2)cc1 (stereo not given)	inconclusive: 16.4 µM [falling, partial curve, poor fit]
CCn1c(SCC(=O)N2CCC(C)CC2)nnc1-c1ccc(S(=O)(=O)N2CCN(C)CC2)cc1	inactive
O=C(NCCS(=O)(=O)NCCc1ccccc1)c1ccc2c(c1)OCO2	inconclusive: 9.2 µM [activator, partial curve]
O=S(=O)(N1CCN(c2nc(-c3cccs3)nc3ccccc23)CC1)C(F)(F)F	inactive
CC1=C(C(=O)Nc2ccccc2)C(c2ccco2)C(C#N)=C(SCC(=O)Nc2cccc(C)c2C)N1 (stereo not given)	inconclusive: 32.6 µM [falling, single point]
CCCN1CCC(=NNc2ccc(C(=O)O)cc2)CC1	inconclusive: 18.4 µM [activator, partial curve]
Cc1nn(CCC(=O)NCc2ccc(Cl)cc2)c(=O)c2nn(-c3ccccc3)c(C)c12	inactive
Cc1ccc2nc(-c3ccc(NC(=O)C(C)N4C(=O)c5ccccc5C4=O)cc3)sc2c1 (stereo not given)	inconclusive: 2.06 µM [activator, full curve]
Cc1c(Cl)cccc1NC(=O)CC(c1ccc(F)cc1)N1Cc2ccccc2C1=O (stereo not given)	inactive
C=CCOC(=O)C1=C(C)NC(=O)NC1c1cn(-c2ccccc2)nc1-c1cccs1 (stereo not given)	inconclusive: 29.1 µM [falling, single point]
NC(=O)CCCn1c(C(=O)c2cc(Cl)c(N)c(Cl)c2)c2ccc(C(F)(F)F)cc2[n+]1[O-]	inconclusive: 2.91 µM [activator, partial curve, poor fit]
Cc1ccc2[nH]cc(C(c3ccccc3)c3ccc(C)s3)c2c1 (stereo not given)	inconclusive: 29.1 µM [falling, single point]
CCOC(=O)c1ccc(-c2ccc(/C=C(\C#N)c3nc4ccc(C)cc4[nH]3)o2)cc1	inconclusive: 5.17 µM [activator, partial curve]
CN(CCC#N)C(=O)COC(=O)c1ccccc1C(=O)c1ccc(Cl)c([N+](=O)[O-])c1	inactive
CCOc1ccc(S(=O)(=O)N2CCC(C(=O)NCC3CCCO3)CC2)cc1 (stereo not given)	inactive
COc1ccc2[nH]c(=O)c(CN(C(=O)C3CCCO3)c3ccc(C)c(C)c3)cc2c1 (stereo not given)	inconclusive: 16.4 µM [activator, single point]
Cc1cccc(-c2noc(CN(C(=O)CCc3ccccc3)C(C)C)n2)c1	inconclusive: 9.2 µM [falling, partial curve, poor fit]
COc1ccc(Cc2noc(-c3ccccc3)n2)cc1OC	inconclusive: 18.4 µM [falling, single point]
COc1cc(/C=N/NC(=O)c2ccncc2)ccc1OCc1cnc(Cl)s1	inconclusive: 29.1 µM [activator, single point]
COc1ccccc1CCn1c(N)c(C#N)c2nc3ccccc3nc21	inconclusive: 8.2 µM [falling, partial curve]

— PubChem BioAssay AID504444 (National Center for Advancing Translational Sciences (NCATS), 2011)
